Laboratory results published in US12370235B2, “Synthetic, non-natural antimicrobial peptides inspired by Staphylococcus auricularis delta toxin” (University of Saskatchewan, priority 2021, dated 2025).
For some assays here: Not every detail of the peptide structures is certain; ends, links or a residue may be inferred. Some entries share one result that the patent states for a list of compounds. Ends that are not written are not given here.

Legend:
[1] = test system: S. aureus ATCC 29213; test: MIC, broth dilution; type: cell-based, Staphylococcus aureus; details: concentration as high as 200 μg/mL (˜100 μM)
Procedure: (§1) MIC determination. MICs were measured using peptides with 95% purity. For bacterial studies, cation-adjusted Mueller Hinton (MH) broth was used as the growth medium whereas Yeast Peptone Dextrose (YPD; 10 g/L yeast extract, 20 g/L peptone, 20 g/L dextrose) was used for Candida spp. and other yeast. Microorganisms were diluted to an optical density of […] in MH or YPD broth and a 180 μl volume was mixed with 20 μl of peptide arrayed as a 2-fold dilution series in a flat-bottom 96-well microtitre plate. A control was performed using 20 μl of sterile water. Plates were incubated as standing cultures overnight at 37° C.
(§2) Determination of minimum inhibitory concentrations. The MICs were measured for bioactive peptides identified from the initial screen. For bacterial studies, cation-adjusted Mueller Hinton (MH) broth was used as the growth medium whereas YPD was used for C. albicans. Bacterial cultures were diluted to a OD value of 6×10^−4 in MH broth and a 180 μl volume was mixed with 20 μl of peptide arrayed as 2-fold dilution series in a 96-well plate. For the positive control, 20 μl of sterile water was used. Plates were incubated as standing cultures overnight at 37° C. The lowest peptide concentration that resulted no observed microbial growth after an overnight treatment was defined as the MIC.

[2] = test system: Mannheimia haemolytica ATCC 33393; test: MIC, broth dilution; type: cell-based
Procedure: as §1
Determination of minimum inhibitory concentrations. The MICs were measured for bioactive peptides identified from the initial screen. For bacterial studies, cation-adjusted Mueller Hinton (MH) broth was used as the growth medium whereas YPD was used for C. albicans. Bacterial cultures were diluted to a OD value of 6×10^−4 in MH broth and a 180 μl volume was mixed with 20 μl of peptide arrayed as 2-fold dilution series in a 96-well plate. […]
The ability of STIP3 variants to inhibit the growth of Mannheimia haemolytica ATCC 33393 was evaluated. This included an alanine scan of STIP3-1 (FIG. 8 & Table 10) as well as 30 rationally-designed STIPs that were evaluated in the preceding Examples against other pathogens (Table 11). […]

[3] = Circular dichroism spectroscopy; type: physicochemical; details: CD, 50% (v/v) TFE
Description: The δ-toxins and the PSMs are characterized as α-helical peptides that form amyloid fibers^48. Although the propensity of individual peptides to form amyloids is correlated to their cytotoxicity^49, the amyloid form is not directly implicated in cell membrane disruption^50. […] CD spectroscopy was used to investigate the secondary structure of a subset of peptides within the collection (FIG. 4A, Table 5). The STIP variants adopted α-helical forms in 50% (v/v) trifluoroethanol (TFE), though unlike the full-length S. auricularis δ-toxin, they were unstructured in water. […] Specifically, peptides characterized by the greatest and least α-helical content in TFE had MICs above the highest tested threshold.
Circular dichroism spectroscopy. Peptides were dissolved in water at concentrations between 0.3 and 0.5 mg/mL. CD spectra were recorded on an Applied Photophysics Chirascan Plus CD spectrophotometer at room temperature in a 0.1 cm path-length quartz cuvette. Spectra were recorded from 180 to 260 nm.

[4] = test system: S. aureus ATCC BAA-1683 (MRSA SCCmec type IV); test: MIC, broth dilution; type: cell-based, Staphylococcus aureus; details: Table 5; STIP3 variants, highest concentration 100 μg/mL
Procedure: as §1, §2

[5] = test system: Kodamae ohmeri AR 396; test: MIC, YPD broth, CDC and FDA AR Candida isolate panel; type: cell-based; details: Table 9 top part: titrations from 1.56 to 100 μg/mL
Procedure: as §1

[6] = test system: Candida duobushaemulonii AR 392; test: as above; type: cell-based; details: Table 9 top part: titrations from 1.56 to 100 μg/mL
Procedure: as §1

[7] = test system: S. aureus ATCC 29213; test: Spot-on-lawn assay; type: cell-based, Staphylococcus aureus; details: 50 μg peptide spotted on agar
Procedure: Spot-on-lawn assay. For the initial screen, peptides of ≥70% purity were used. Each peptide was resuspended in sterile water to a concentration of 10 mg/ml. To determine antimicrobial activities a spot-on-lawn assay was performed. M. luteus and S. aureus were used as indicator strains. To prepare test organisms, the optical density (OD) of overnight cultures were measured and the organisms were diluted to an initial OD of 0.05 in soft nutrient agar (0.4% w/v) at 50° C. Next, 3 mL of soft agar containing a test organism was overlaid on a solid 1.5% w/v nutrient agar plate (LB). A total of 50 μg of each peptide was spotted on the inoculated surface and plates were incubated for 16 to 48 h before being examined for zones of inhibition.
SspA protease treatment. SspA protease was resuspended at 2 mg/mL in 100 mM HEPES, pH 7.8. Proteolysis was achieved by incubation of 50 μg PSMs at 37° C. for ˜5 hours with 0.2 mg/mL SspA. The antimicrobial activity of the proteolytic products were assayed by spotting a 5 μL (˜45 μg) from each treated peptide on each test microorganism as described above.

For “TVGGLVKWILATVKKFA [STIP3-2, TVGGLVKWILATVKKFA]”, the “activity against S. aureus in nutrient broth” value (“activity against S. aureus” for short) [1] was at most 200 µg/mL.

For “TVGGLVKWILDTVKKFA [STIP3-1, TVGGLVKWILDTVKKFA]”, the “MIC (μg/mL) M. haemolytica” value ([2]; Table 10, liquid broth) was 6.25 µg/mL, the “MIC (μg/mL) M. haemolytica” value ([2]; Table 11, highest concentration 25 μg/mL) was 25 µg/mL and the “α helicity (%)” value [3] was 67%. For the same sequence, the “MIC S. aureus ATCC BAA 1683 (IV)” value [4] was “> (no inhibition was observed at the highest concentration of peptide tested: 100 μg/mL for the STIP3 variants)”, the “MIC (μg/mL) Kodamae ohmeri AR 396” value [5] was “> (MIC values reported at the top of the table (above the double line) are based on titrations from 1.56 to 100 μg/mL)” and the “MIC (μg/mL) Candida duobushaemulonii AR 392” value [6] was “> (MIC values reported at the top of the table (above the double line) are based on titrations from 1.56 to 100 μg/mL)”. The “inhibition of S. aureus, spot-on-lawn” value [7] was “responsible for the inhibition of S. aureus”.

With “TVGGLVKWILDAVKKFA [T12A, TVGGLVKWILDAVKKFA]” the “activity against S. aureus” value [1] was at most 200 µg/mL.

For “TVGGLVKWILDTAKKFA [V13A, TVGGLVKWILDTAKKFA]”, the “activity against S. aureus” value [1] was at most 200 µg/mL.

For “AVGGLVKWILDTVKKFA [T1A, AVGGLVKWILDTVKKFA]”, the “activity against S. aureus” value [1] was at most 200 µg/mL.
